Consider 1 molecule from patent US11234971B2, “Methods of treating cancer comprising administration of a glucocorticoid receptor modulator and a cancer chemotherapy agent” (Corcept Therapeutics Incorporated, priority 2018, dated 2022).

This test concerns OVCAR-5 human ovarian cancer cells. Nature of the test: OVCAR-5 cell growth (Cell Titer-Glo) with chemotherapy agents with or without dexamethasone and relacorilant. The format is cell-based. The following applies: 100 nM dexamethasone, 300 nM relacorilant. The protocol: The initial cell density was chosen to be low enough to allow for several population doublings (typically 3 to 5) during the indicated incubation period. […] After 48 hours of incubation, serially diluted test agents in growth medium were added to each well. After 72 hours of culture, the plated cells and Cell Titer-Glo® (Promega G7571) reagents were brought to room temperature to equilibrate for 30 minutes. 200 μL of Cell Titer-Glo® reagent was then added to each well, the plate was shaken for two minutes, and then left to equilibrate for ten minutes. The Cell Titer-Glo® cell viability assay uses ATP levels to determine cell numbers. After this equilibration, luminescence was read on the Biotech Synergy II microplate reader. The percent control (% C) of cell growth for each test concentration was calculated relative to untreated wells. All tests were performed in quadruplicate. Individual assay plates were evaluated for appropriate signal and well-to-well variance in the control wells for quality control.
On the technique in general: Cellular ATP, detected with luciferase, serves as a proxy for viable cell number.

For `CC/C(=C(\c1ccccc1)c1ccc(OCCN(C)C)cc1)c1ccccc1` [Tamoxifen], the “IC50 (decrease in IC50 of the agent from dexamethasone-alone to relacorilant + dexamethasone)” value is given as “−”.
